Values quoted from earlier work as cited in patent US11628198B2, “Methods for prevention and treatment of acute renal injury” (Cornell University, priority 2008, dated 2023).
At least one compound was matched to its structure with a doubt left.

Settings: cited from earlier work

| Compound | Level (osmolar class) | osmolality |
| --- | --- | --- |
| CC(=O)N(CC(O)CO)c1c(I)c(C(=O)NCC(O)CO)c(I)c(C(=O)NCC(O)CO)c1I (stereo not shown) [Iohexol (Omnipaque 350), Iohexol] | Low Osmolar | – |
| CN(C(=O)CC(=O)N(C)c1c(I)c(C(=O)NC(CO)C(O)CO)c(I)c(C(=O)NC(CO)C(O)CO)c1I)c1c(I)c(C(=O)NC(CO)C(O)CO)c(I)c(C(=O)NC(CO)C(O)CO)c1I (stereo not shown) [Iotrolan, iotrolan] | – | 0.32 osm/kg H2O |
| CC(=O)Nc1c(I)c(C(=O)O)c(I)c(N(C)C(C)=O)c1I [Metrizoate (Isopaque Coronar 370), Metrizoate] | High Osmolar | 2100 |
